This note sets out measurements from article PMC9646841, “A bead-based GPCR phosphorylation immunoassay for high-throughput ligand profiling and GRK inhibitor screening” (Communications Biology, 2022).

As usually defined, the EC50 is the concentration at which the effect is half-maximal. Higher therefore signals a need for much substance.

For the experiment, the system named is MOP (GIRK2 channel activation). The experiment is described as follows: GIRK channel membrane potential assay (G protein signaling). The following applies: Mus musculus. The format is cell-based. On the procedure: To analyze Gi signaling, changes in membrane potential produced by activation of G protein-gated inwardly rectifying potassium channel (GIRK) were measured as previously described[50],[51]. HEK293 cells were stably transfected with HA-MOP and GFP-conjugated GIRK2 channel plasmids (OriGene). The cells were then seeded in 96-well plates and allowed to grow at 37 °C in 5% CO2 for 48 h. Hank’s balanced salt solution (HBSS) with 20 mM HEPES solution (1.3 mM CaCl2, 5.4 mM KCl, 0.4 mM K2HPO4, 0.5 mM MgCl2, 0.4 mM MgSO4, 136.9 mM NaCl, 0.3 mM Na2HPO4, 4.2 mM NaHCO3 and 5.5 mM glucose; pH 7.4) was used to wash the cells. A membrane potential dye (FLIPR Membrane Potential kit BLUE, Molecular Devices R8034) was reconstituted according to the manufacturer’s instructions. To each well, 90 μl of the HBSS/HEPES buffer solution and an equal volume of the membrane potential dye were added to a final volume of 180 μl per well. […] Test compounds were prepared in buffer solution containing HBSS and 20 mM HEPES solution (pH 7.4) at tenfold the final concentration to be measured. […] Baseline readings were taken every 1.8 s for 1 min. […] The change in dye fluorescence was recorded for 240 s with SoftMax Pro 5.4 software. Peak fluorescence values were obtained after subtraction of baseline readings for each sample and then used to calculate concentration–response curves using Origin.

Take `CN1CC[C@]23c4c5ccc(O)c4O[C@H]2[C@@H](O)C=C[C@H]3[C@H]1C5` [Morphine, morphine]: the EC50 is 5.01 nM.
